From patent US8268635B2, “Methods of identifying agents that selectively activate p38 and/or NKkB signaling” (priority 2006, dated 2012)
pIC50: −log10 of the molar value. For some of these results: Part of at least one peptide drawing is inferred or uncertain, most often the ends. For some of these results: At least one structure is not confirmed: it was looked up by name or label, or the drawing left a doubt. Where no end group is shown, it is not given here.

What was measured:
[1] = target: T1, recombinant human soluble TNF receptor inhibitor/Fc chimera (rHusTNFRI) (Homo sapiens, UniProt P19438); assay: Solid-phase competition binding assay with biotinylated TNF70-80; settings: 10 μM biotinylated TNF70-80 tracer; mean of duplicate wells from two experiments; read-out: IC50, inhibition of biotinylated TNF70-80 binding to immobilised rHusTNFRI
T1 construct: purchased Prospec-Tany TechnoGene Ltd, Rehovot, Israel

[2] = system: neutrophils; assay: Neutrophil superoxide production, lucigenin chemiluminescence assay; type: cell-based, human; settings: agent alone as stimulus
[3] = system: JNK; assay: JNK activity in WEHI-164 cells; type: cell-based; settings: 15 mins; TNF 1000 U/ml, TNF132-150 100 μg/ml
[4] = system: p38; assay: p38 kinase activity in WEHI-164 cells; type: cell-based; settings: 15 mins; TNF 1000 U/ml, TNF132-150 100 μg/ml

Substance	pIC50 [1]	stimulation of neutrophil respiratory burst / superoxide production [2]	JNK activity in WEHI-164 cells [3]	activity of p38 in WEHI-164 cells [4]
PSTHVLITHTI-OH [TNF70-80]	~4.68	–	–	–
LSAEINRPDYLDFAESGQV [TNF132-150]	–	failed to stimulate superoxide production	able to activate JNK kinase activity similar to that by TNF	failed to stimulate the activity of p38
